Earlier results as cited in publication PMC2774495 (Cancer chemotherapy and pharmacology, 2009).

Biological target: human aromatase
Conditions: read-out: IC50 for inhibition of human aromatase; cited from earlier work

**Q.** For CC(C)(C#N)c1cc(Cn2cncn2)cc(C(C)(C)C#N)c1 [anastrozole], which IC50 is on record?
**A.** ~0.015 µM
